Reference: PMC7500022

Amino acid sequences for entries named in this document (tags omitted).
UniProt P07356: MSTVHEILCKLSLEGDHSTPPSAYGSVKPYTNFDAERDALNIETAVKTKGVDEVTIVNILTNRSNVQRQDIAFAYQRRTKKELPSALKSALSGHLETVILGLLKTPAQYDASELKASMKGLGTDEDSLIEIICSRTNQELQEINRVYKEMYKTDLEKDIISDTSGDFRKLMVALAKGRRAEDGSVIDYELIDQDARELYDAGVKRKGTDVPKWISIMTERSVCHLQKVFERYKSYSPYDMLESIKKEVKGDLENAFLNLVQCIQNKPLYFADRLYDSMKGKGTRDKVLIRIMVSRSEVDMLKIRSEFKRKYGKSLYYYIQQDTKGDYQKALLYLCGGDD

Target: T1, Flag-tagged FOXQ1 protein (Forkhead box Q1) (UniProt O70220)
T1 sequence: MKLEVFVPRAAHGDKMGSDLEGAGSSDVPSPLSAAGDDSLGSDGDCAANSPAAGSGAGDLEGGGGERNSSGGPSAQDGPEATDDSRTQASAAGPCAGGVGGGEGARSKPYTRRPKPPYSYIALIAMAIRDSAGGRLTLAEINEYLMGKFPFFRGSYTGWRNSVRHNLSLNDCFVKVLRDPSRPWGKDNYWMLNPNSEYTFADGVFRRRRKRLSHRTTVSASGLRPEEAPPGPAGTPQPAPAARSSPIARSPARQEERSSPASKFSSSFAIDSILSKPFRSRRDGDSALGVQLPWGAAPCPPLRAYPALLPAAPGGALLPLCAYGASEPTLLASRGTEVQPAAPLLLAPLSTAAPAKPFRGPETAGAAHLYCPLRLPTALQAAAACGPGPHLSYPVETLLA
Assay: affinity purification with mass spectrometry; anti-FLAG antibody coupled to resin (Pierce co-IP kit), incubated overnight at 4 °C with 200 μL total protein lysate of mBMSCs (Foxq1-over and lv5) transfected with Flag-tagged Foxq1; eluate analysed by LC-MS (TripleTOF 5600-Plus, ProteinPilot)

In the case of “Annexin A2 (ANXA2) (from UniProt P07356 1-339)”, the binding is reported as “binds”.

Results are given in words; binding and its absence hold for the method and conditions named. In cells and extracts the contact can be indirect. These calls come from enrichment with a bait or labelling near it, and not all partners need be listed. Sequences can lack the tags named with a protein.
